Test results as given in publication PMC5807548.
These are yes or no findings as the source states them, for the method shown. Binding seen in cells or lysates may run through a third protein. Some results given as binding are weak or reduced against the parent protein; the word gives no strength.

Protein sequences, listed by entry. Tags and fused reporters are not part of them.
UniProt P19785: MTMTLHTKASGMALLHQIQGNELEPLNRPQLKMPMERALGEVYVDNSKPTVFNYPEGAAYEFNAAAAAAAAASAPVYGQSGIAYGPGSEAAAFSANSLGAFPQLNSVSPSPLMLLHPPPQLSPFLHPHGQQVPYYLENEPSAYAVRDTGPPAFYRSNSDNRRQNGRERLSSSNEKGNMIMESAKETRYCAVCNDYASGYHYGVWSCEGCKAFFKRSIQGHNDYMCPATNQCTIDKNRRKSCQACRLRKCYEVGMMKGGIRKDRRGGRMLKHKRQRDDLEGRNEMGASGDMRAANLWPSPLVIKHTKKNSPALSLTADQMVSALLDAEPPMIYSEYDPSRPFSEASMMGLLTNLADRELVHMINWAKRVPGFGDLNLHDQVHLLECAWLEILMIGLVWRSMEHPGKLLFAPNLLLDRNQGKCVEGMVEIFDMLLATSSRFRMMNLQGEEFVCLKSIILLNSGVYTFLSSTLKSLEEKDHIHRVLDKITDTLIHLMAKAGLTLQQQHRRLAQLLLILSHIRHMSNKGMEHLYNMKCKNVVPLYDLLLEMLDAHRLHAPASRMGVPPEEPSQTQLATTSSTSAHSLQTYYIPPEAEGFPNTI

Target: ESR1 (mouse (endogenous in uterine tissue)) (UniProt P19785)
Assay: co-IP; day 4 pregnant mouse uterine tissue homogenised in RIPA buffer (10 mM HEPES, 142.5 mM KCl, 5 mM MgCl2, 1 mM EGTA, 0.5% NP-40, pH 7.5); 2 mg protein with 1 ug specific antibody and Protein G Dynabeads overnight at 4 C; immunoblot

- binding: binds
B1: FOXA2 (protein, UniProt P35583 1-459)
chain: MLGAVKMEGHEPSDWSSYYAEPEGYSSVSNMNAGLGMNGMNTYMSMSAAAMGGGSGNMSAGSMNMSSYVGAGMSPSLAGMSPGAGAMAGMSGSAGAAGVAGMGPHLSPSLSPLGGQAAGAMGGLAPYANMNSMSPMYGQAGLSRARDPKTYRRSYTHAKPPYSYISLITMAIQQSPNKMLTLSEIYQWIMDLFPFYRQNQQRWQNSIRHSLSFNDCFLKVPRSPDKPGKGSFWTLHPDSGNMFENGCYLRRQKRFKCEKQLALKEAAGAASSGGKKTAPGSQASQAQLGEAAGSASETPAGTESPHSSASPCQEHKRGGLSELKGAPASALSPPEPAPSPGQQQQAAAHLLGPPHHPGLPPEAHLKPEHHYAFNHPFSINNLMSSEQQHHHSHHHHQPHKMDLKAYEQVMHYPGGYGSPMPGSLAMGPVTNKAGLDASPLAADTSYYQGVYSRPIMNSS
